Measured data: PubChem BioAssay AID1224826 (NIAID, 2016)

Aim: 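Genes that change LPS-induced Tnf promoter activity in mouse macrophages when knocked down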 (primary screen)
Cells: RAW264.7 G9 macrophages from mouse bearing reporters for p65 (GFP) and the Tnf promoter (mCherry)
Reagents: siRNA pool against mouse genes, 100 nM
Time to read-out: 16 h of LPS stimulation, after 2 days of siRNA transfection
Treatment: bacterial lipopolysaccharide (Salmonella minnesota R595), 10 ng/ml
Measurement: 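Imaged Tnf reporter mCherry in nuclei, minus background, normalised per plate to the median and expressed as robust z-scores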
Reading the numbers: Tnf reporter robust z-score: higher = stronger Tnf promoter reporter signal after LPS
Rule for the call: 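a well counts as active at a score of -1.3 or below (Tlr4 knock-down control median) or above 3 (raised signal); controls and wells holding fewer than 50 cells are excluded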
Calls: active = Tnf reporter clearly lowered or raised; inactive = no clear change in Tnf reporter
The deposit covers about 17,000 reagents; this is an unselected part. In the full data, about 1,110 (6.6%) are marked active. 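Active means lowered or raised reporter signal; replicate intensities are raw and not normalised per plate.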 The numbers tell different reagents against one gene apart. Further read-outs or replicates are left out here.

{"target": "Gm2716", "reagent no.": 1, "Tnf reporter robust z-score": -0.13, "fewer than 50 cells in well": "enough cells in well", "outcome": "inactive"}
{"target": "Plcd4", "reagent no.": 1, "Tnf reporter robust z-score": 0.15, "fewer than 50 cells in well": "enough cells in well", "outcome": "inactive"}
{"target": "Gsn", "reagent no.": 1, "Tnf reporter robust z-score": -0.73, "fewer than 50 cells in well": "enough cells in well", "outcome": "inactive"}
{"target": "Abcb8", "reagent no.": 1, "fewer than 50 cells in well": "fewer than 50 cells per well; well left out of calls", "outcome": "inactive"}
{"target": "Vmn1r62", "reagent no.": 1, "Tnf reporter robust z-score": 0.03, "fewer than 50 cells in well": "enough cells in well", "outcome": "inactive"}
{"target": "Vmn1r62", "reagent no.": 2, "Tnf reporter robust z-score": -0.74, "fewer than 50 cells in well": "enough cells in well", "outcome": "inactive"}
{"target": "Npr3", "reagent no.": 1, "Tnf reporter robust z-score": 1.21, "fewer than 50 cells in well": "enough cells in well", "outcome": "inactive"}
{"target": "Plcg2", "reagent no.": 1, "Tnf reporter robust z-score": -0.87, "fewer than 50 cells in well": "enough cells in well", "outcome": "inactive"}
{"target": "Hk3", "reagent no.": 1, "fewer than 50 cells in well": "fewer than 50 cells per well; well left out of calls", "outcome": "inactive"}
{"target": "Khk", "reagent no.": 1, "Tnf reporter robust z-score": 0.42, "fewer than 50 cells in well": "enough cells in well", "outcome": "inactive"}
{"target": "P2ry10", "reagent no.": 1, "Tnf reporter robust z-score": -1.66, "fewer than 50 cells in well": "enough cells in well", "outcome": "active"}
{"target": "Htr1f", "reagent no.": 1, "Tnf reporter robust z-score": 0.58, "fewer than 50 cells in well": "enough cells in well", "outcome": "inactive"}
{"target": "Ccz1", "reagent no.": 1, "Tnf reporter robust z-score": -0.51, "fewer than 50 cells in well": "enough cells in well", "outcome": "inactive"}
{"target": "Dusp8", "reagent no.": 1, "Tnf reporter robust z-score": 0.67, "fewer than 50 cells in well": "enough cells in well", "outcome": "inactive"}

Hits (from the list above):
{"target": "P2ry10", "reagent no.": 1, "Tnf reporter robust z-score": -1.66, "fewer than 50 cells in well": "enough cells in well", "outcome": "active"}

The listing continues.
{"target": "Wdr37", "reagent no.": 1, "Tnf reporter robust z-score": -0.24, "fewer than 50 cells in well": "enough cells in well", "outcome": "inactive"}
{"target": "Topbp1", "reagent no.": 1, "Tnf reporter robust z-score": 0.7, "fewer than 50 cells in well": "enough cells in well", "outcome": "inactive"}
{"target": "Hipk1", "reagent no.": 1, "Tnf reporter robust z-score": -0.42, "fewer than 50 cells in well": "enough cells in well", "outcome": "inactive"}
{"target": "Dcbld2", "reagent no.": 1, "Tnf reporter robust z-score": 1.91, "fewer than 50 cells in well": "enough cells in well", "outcome": "inactive"}
{"target": "Oscp1", "reagent no.": 1, "Tnf reporter robust z-score": -0.04, "fewer than 50 cells in well": "enough cells in well", "outcome": "inactive"}
{"target": "Plxna1", "reagent no.": 1, "fewer than 50 cells in well": "fewer than 50 cells per well; well left out of calls", "outcome": "inactive"}
{"target": "Tlx2", "reagent no.": 1, "Tnf reporter robust z-score": -1.17, "fewer than 50 cells in well": "enough cells in well", "outcome": "inactive"}
